Measurements published in patent publication US20240019429A1, “METHODS AND RELATED ASPECTS FOR DETERMINING BINDING KINETICS OF LIGANDS” (ARIZONA BOARD OF REGENTS ON BEHALF OF ARIZONA STATE …, priority 2022, published 2024).
The name of at least one read-out is uncertain.

Target: T1, Src kinase (Homo sapiens, UniProt P12931)
T1 construct: The active full length SRC protein was purchased from Abcam; purchased Abcam
Assay: SPR-OBL phosphorylation kinetics of SRCtide by Src kinase
Type: biochemical
Settings: fit of AC component to Eq. 1 (EQSS), ATP present; read-out: Michaelis constant (KM)
Excerpt: Since SPR-OBL is able to record mass and charge changes at the same time, it is particularly suitable for studying complex enzymatic processes that involve multiple kinetic steps and size and charge changes. Phosphorylation is one of such reactions that includes binding of the kinase to the substrate, adding a phosphate to the substrate, and unbinding of the kinase, where each step accompanies mass or charge change. Despite the importance of phosphorylation in many basic cellular signaling processes and its close relationship with various diseases and cancers, traditional techniques including fluorescence, western blot, and mass spectrometry are unable to resolve the kinetic process in real-time, and each kinetic step needs to be measured separately, limiting the measurement efficiency. […]
where E and S are the enzyme and substrate, ES is the complex, and P is the phosphorylated product, respectively; and k denotes the kinetic constant in each step. We measured the SPR-OBL response of different concentrations of Src in the presence of ATP and the results are shown in FIG. 8b. […]
where [E0], [S0] and [P] are concentration of SRC, SRCtide and the product, respectively. The Michaelis constant (KM) and catalytic constant (k2) can be determined to be 4.4 nM and 5.5×10^−4 s^−1 by fitting the AC component (FIG. 8d) to Eq. 1. […]

SRCtide: peptide containing 14 amino acid with the sequence GEEPLYWSFPAKKK (SEQ ID NO: 1), substrate of Src kinase
Km: 4.4 nM
